# This is one part of the list.
# Tests used:
# Assay in all cases: glycan array binding signal (z-score within array); higher = stronger binding
# Details in all cases: glycan notation: IUPAC condensed, linker removed
# [1] = tested on: Gal(a1-3)[Gal(a1-4)]Gal(b1-4)GlcNAc
# Outline: (§1)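 Arrays were curated from the Consortium for Functional Glycomics database, 3228 in total, and kept only where the protein sequence was available. Binding is expressed as a within-array Z-score. This score was averaged across arrays of the same protein sequence at different concentrations or buffers and across linkers, and negative values can be read as non-binding.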
# [2] = tested on: Gal(a1-4)Gal(b1-3)GlcNAc(b1-2)Man(a1-3)[Gal(a1-4)Gal(b1-3)GlcNAc(b1-2)Man(a1-6)]Man(b1-4)GlcNAc(b1-4)GlcNAc
# Outline: as §1
# [3] = tested on: Gal(a1-4)Gal(b1-4)GlcNAc(b1-2)Man(a1-3)[Gal(a1-4)Gal(b1-4)GlcNAc(b1-2)Man(a1-6)]Man(b1-4)GlcNAc(b1-4)GlcNAc
# Outline: as §1
# [4] = tested on: Gal(a1-4)Gal(b1-4)GlcNAc(b1-3)Gal(b1-4)Glc
# Outline: as §1
# [5] = tested on: Gal(a1-4)Gal(b1-4)GlcNAc
# Outline: as §1
# [6] = tested on: Gal(a1-4)Gal(b1-4)Glc
# Outline: as §1
# [7] = tested on: Gal(a1-4)GlcNAc
# Outline: as §1
# [8] = tested on: Gal(a1-6)Glc
# Outline: as §1
# [9] = tested on: Gal(b1-2)Gal
# Outline: as §1
# [10] = tested on: Gal(b1-3)Gal(b1-4)GlcNAc
# Outline: as §1
# [11] = tested on: Gal(b1-3)GalNAc(a1-3)[Fuc(a1-2)]Gal(b1-4)GlcNAc
# Outline: as §1
# [12] = tested on: Gal(b1-3)GalNAc(a1-3)[Fuc(a1-2)]Gal(b1-4)Glc
# Outline: as §1
# [13] = tested on: Gal(b1-3)GalNAc(b1-3)Gal(a1-4)Gal(b1-4)Glc
# Outline: as §1
# [14] = tested on: Gal(b1-3)GalNAc(b1-3)Gal
# Outline: as §1
# [15] = tested on: Gal(b1-3)GalNAc(b1-4)Gal(b1-4)Glc
# Outline: as §1
# [16] = tested on: Gal(b1-3)GalNAc(b1-4)[Neu5Ac(a2-3)]Gal(b1-4)Glc
# Outline: as §1
# [17] = tested on: Gal(b1-3)GalNAc
# Outline: as §1
# [18] = tested on: Gal(b1-3)Gal
# Outline: as §1
# [19] = tested on: Gal(b1-3)GlcNAc(a1-3)Gal(b1-4)GlcNAc
# Outline: as §1
# [20] = tested on: Gal(b1-3)GlcNAc(a1-6)Gal(b1-4)GlcNAc
# Outline: as §1
# [21] = tested on: Gal(b1-3)GlcNAc(b1-2)Man(a1-3)[Gal(b1-3)GlcNAc(b1-2)Man(a1-6)]Man(b1-4)GlcNAc(b1-4)GlcNAc
# Outline: as §1
# [22] = tested on: Gal(b1-3)GlcNAc(b1-2)Man(a1-3)[Gal(b1-3)GlcNAc(b1-2)Man(a1-6)]Man(b1-4)GlcNAc(b1-4)[Fuc(a1-6)]GlcNAc
# Outline: as §1
# [23] = tested on: Gal(b1-3)GlcNAc(b1-2)Man(a1-3)[GlcNAc(b1-4)][Gal(b1-3)GlcNAc(b1-2)Man(a1-6)]Man(b1-4)GlcNAc(b1-4)GlcNAc
# Outline: as §1
# [24] = tested on: Gal(b1-3)GlcNAc(b1-2)Man
# Outline: as §1
# [25] = tested on: Gal(b1-3)GlcNAc(b1-2)[Gal(b1-3)GlcNAc(b1-6)]Man(a1-6)[Gal(b1-3)GlcNAc(b1-2)Man(a1-3)]Man(b1-4)GlcNAc(b1-4)GlcNAc
# Outline: as §1
# [26] = tested on: Gal(b1-3)GlcNAc(b1-3)Gal(b1-3)GlcNAc
# Outline: as §1
# [27] = tested on: Gal(b1-3)GlcNAc(b1-3)Gal(b1-4)GlcNAc(b1-2)Man(a1-3)[Gal(b1-3)GlcNAc(b1-3)Gal(b1-4)GlcNAc(b1-2)Man(a1-6)]Man(b1-4)GlcNAc(b1-4)GlcNAc
# Outline: as §1
# [28] = tested on: Gal(b1-3)GlcNAc(b1-3)Gal(b1-4)GlcNAc(b1-2)[Gal(b1-3)GlcNAc(b1-3)Gal(b1-4)GlcNAc(b1-6)]Man(a1-6)[Gal(b1-3)GlcNAc(b1-3)Gal(b1-4)GlcNAc(b1-2)Man(a1-3)]Man(b1-4)GlcNAc(b1-4)[Fuc(a1-6)]GlcNAc
# Outline: as §1
# [29] = tested on: Gal(b1-3)GlcNAc(b1-3)Gal(b1-4)GlcNAc(b1-3)Gal(b1-4)GlcNAc(b1-2)[Gal(b1-3)GlcNAc(b1-3)Gal(b1-4)GlcNAc(b1-3)Gal(b1-4)GlcNAc(b1-6)]Man(a1-6)[Gal(b1-3)GlcNAc(b1-3)Gal(b1-4)GlcNAc(b1-3)Gal(b1-4)GlcNAc(b1-2)Man(a1-3)]Man(b1-4)GlcNAc(b1-4)[Fuc(a1-6)]GlcNAc
# Outline: as §1
# [30] = tested on: Gal(b1-3)GlcNAc(b1-3)Gal(b1-4)GlcNAc(b1-6)[Gal(b1-3)GlcNAc(b1-3)]Gal(b1-4)Glc
# Outline: as §1
# [31] = tested on: Gal(b1-3)GlcNAc(b1-3)Gal(b1-4)GlcNAc
# Outline: as §1
# [32] = tested on: Gal(b1-3)GlcNAc(b1-3)Gal(b1-4)Glc
# Outline: as §1
# [33] = tested on: Gal(b1-3)GlcNAc(b1-3)Gal(b1-4)[Fuc(a1-3)]GlcNAc(b1-6)[Gal(b1-3)GlcNAc(b1-3)]Gal(b1-4)Glc
# Outline: as §1
# [34] = tested on: Gal(b1-3)GlcNAc(b1-3)Gal(b1-4)[Fuc(a1-3)]GlcNAc
# Outline: as §1
# [35] = tested on: Gal(b1-3)GlcNAc(b1-3)GalNAc
# Outline: as §1
# [36] = tested on: Gal(b1-3)GlcNAc(b1-6)Gal(b1-4)GlcNAc
# Outline: as §1
# [37] = tested on: Gal(b1-3)GlcNAc(b1-6)GalNAc
# Outline: as §1
# [38] = tested on: Gal(b1-3)GlcNAc(b1-6)[Gal(b1-3)]GalNAc
# Outline: as §1
# [39] = tested on: Gal(b1-3)GlcNAc6S
# Outline: as §1
# [40] = tested on: Gal(b1-3)GlcNAc
# Outline: as §1
# [41] = tested on: Gal(b1-3)[Fuc(a1-4)]GlcNAc(b1-2)Man(a1-3)[Gal(b1-3)[Fuc(a1-4)]GlcNAc(b1-2)Man(a1-6)]Man(b1-4)GlcNAc(b1-4)[Fuc(a1-6)]GlcNAc
# Outline: as §1
# [42] = tested on: Gal(b1-3)[Fuc(a1-4)]GlcNAc(b1-2)Man
# Outline: as §1
# [43] = tested on: Gal(b1-3)[Fuc(a1-4)]GlcNAc(b1-3)Gal(b1-3)[Fuc(a1-4)]GlcNAc
# Outline: as §1
# [44] = tested on: Gal(b1-3)[Fuc(a1-4)]GlcNAc(b1-3)Gal(b1-4)[Fuc(a1-3)]GlcNAc
# Outline: as §1
# [45] = tested on: Gal(b1-3)[Fuc(a1-4)]GlcNAc(b1-6)GalNAc
# Outline: as §1
# [46] = tested on: Gal(b1-3)[Fuc(a1-4)]GlcNAc
# Outline: as §1
# [47] = tested on: Gal(b1-3)[GlcNAc(b1-6)]GalNAc
# Outline: as §1
# [48] = tested on: Gal(b1-3)[Neu5Ac(a2-6)]GalNAc
# Outline: as §1
# [49] = tested on: Gal(b1-3)[Neu5Ac(a2-6)]GlcNAc(b1-4)Gal(b1-4)Glc
# Outline: as §1
# [50] = tested on: Gal(b1-3)[Neu5Ac(b2-6)]GalNAc
# Outline: as §1
# [51] = tested on: Gal(b1-4)GalNAc(a1-3)[Fuc(a1-2)]Gal(b1-4)GlcNAc
# Outline: as §1
# [52] = tested on: Gal(b1-4)GalNAc(b1-3)[Fuc(a1-2)]Gal(b1-4)GlcNAc
# Outline: as §1
# [53] = tested on: Gal(b1-4)Gal
# Outline: as §1
# [54] = tested on: Gal(b1-4)Glc6S
# Outline: as §1
# [55] = tested on: Gal(b1-4)GlcNAc(a1-6)Gal(b1-4)GlcNAc
# Outline: as §1
# [56] = tested on: Gal(b1-4)GlcNAc(b1-2)Man(a1-3)Man(b1-4)GlcNAc(b1-4)GlcNAc
# Outline: as §1
# [57] = tested on: Gal(b1-4)GlcNAc(b1-2)Man(a1-3)[Gal(b1-4)GlcNAc(b1-2)Man(a1-6)]Man(b1-4)GlcNAc(b1-4)GlcNAc
# Outline: as §1
# [58] = tested on: Gal(b1-4)GlcNAc(b1-2)Man(a1-3)[Gal(b1-4)GlcNAc(b1-2)Man(a1-6)]Man(b1-4)GlcNAc(b1-4)[Fuc(a1-6)]GlcNAc
# Outline: as §1
# [59] = tested on: Gal(b1-4)GlcNAc(b1-2)Man(a1-3)[Gal(b1-4)GlcNAc(b1-2)Man(a1-6)][Gal(b1-4)GlcNAc(b1-4)]Man(b1-4)GlcNAc(b1-4)[Fuc(a1-6)]GlcNAc
# Outline: as §1
# [60] = tested on: Gal(b1-4)GlcNAc(b1-2)Man(a1-3)[Gal(b1-4)GlcNAc(b1-2)Man(a1-6)][GlcNAc(b1-4)]Man(b1-4)GlcNAc(b1-4)[Fuc(a1-6)]GlcNAc
# Outline: as §1
# [61] = tested on: Gal(b1-4)GlcNAc(b1-2)Man(a1-3)[GlcNAc(b1-2)Man(a1-6)]Man(b1-4)GlcNAc(b1-4)GlcNAc
# Outline: as §1
# [62] = tested on: Gal(b1-4)GlcNAc(b1-2)Man(a1-3)[GlcNAc(b1-4)][Gal(b1-4)GlcNAc(b1-2)Man(a1-6)]Man(b1-4)GlcNAc(b1-4)GlcNAc
# Outline: as §1
# [63] = tested on: Gal(b1-4)GlcNAc(b1-2)Man(a1-3)[Man(a1-6)]Man(b1-4)GlcNAc(b1-4)GlcNAc
# Outline: as §1
# [64] = tested on: Gal(b1-4)GlcNAc(b1-2)Man(a1-6)Man(b1-4)GlcNAc(b1-4)GlcNAc
# Outline: as §1
substance,measurement,setting,value
MpAFP RI GFP (Marinomonas primoryensis),glycan array binding signal (z-score),[1],-0.392
same,glycan array binding signal (z-score),[2],-0.349
same,glycan array binding signal (z-score),[3],-0.087
same,glycan array binding signal (z-score),[4],-0.588
same,glycan array binding signal (z-score),[5],0.997
same,glycan array binding signal (z-score),[6],-0.228
same,glycan array binding signal (z-score),[7],0.126
same,glycan array binding signal (z-score),[8],-0.224
same,glycan array binding signal (z-score),[9],-0.213
same,glycan array binding signal (z-score),[10],-0.374
same,glycan array binding signal (z-score),[11],0.016
same,glycan array binding signal (z-score),[12],0.006
same,glycan array binding signal (z-score),[13],-0.49
same,glycan array binding signal (z-score),[14],0.931
same,glycan array binding signal (z-score),[15],0.076
same,glycan array binding signal (z-score),[16],-0.54
same,glycan array binding signal (z-score),[17],-0.261
same,glycan array binding signal (z-score),[18],-0.099
same,glycan array binding signal (z-score),[19],-0.503
same,glycan array binding signal (z-score),[20],-0.716
same,glycan array binding signal (z-score),[21],0.022
same,glycan array binding signal (z-score),[22],-0.107
same,glycan array binding signal (z-score),[23],1.37
same,glycan array binding signal (z-score),[24],0.239
same,glycan array binding signal (z-score),[25],-0.098
same,glycan array binding signal (z-score),[26],-0.545
same,glycan array binding signal (z-score),[27],-0.371
same,glycan array binding signal (z-score),[28],0.507
same,glycan array binding signal (z-score),[29],2.1
same,glycan array binding signal (z-score),[30],-0.722
same,glycan array binding signal (z-score),[31],-0.335
same,glycan array binding signal (z-score),[32],-0.427
same,glycan array binding signal (z-score),[33],-0.216
same,glycan array binding signal (z-score),[34],-0.347
same,glycan array binding signal (z-score),[35],-0.671
same,glycan array binding signal (z-score),[36],-0.657
same,glycan array binding signal (z-score),[37],-0.483
same,glycan array binding signal (z-score),[38],-0.446
same,glycan array binding signal (z-score),[39],-0.587
same,glycan array binding signal (z-score),[40],-0.331
same,glycan array binding signal (z-score),[41],2.74
same,glycan array binding signal (z-score),[42],0.529
same,glycan array binding signal (z-score),[43],-0.366
same,glycan array binding signal (z-score),[44],-0.369
same,glycan array binding signal (z-score),[45],0.225
same,glycan array binding signal (z-score),[46],-0.41
same,glycan array binding signal (z-score),[47],-0.258
same,glycan array binding signal (z-score),[48],-0.061
same,glycan array binding signal (z-score),[49],-0.689
same,glycan array binding signal (z-score),[50],-1.1
same,glycan array binding signal (z-score),[51],-0.623
same,glycan array binding signal (z-score),[52],-0.643
same,glycan array binding signal (z-score),[53],-0.4
same,glycan array binding signal (z-score),[54],-0.553
same,glycan array binding signal (z-score),[55],-0.753
same,glycan array binding signal (z-score),[56],-0.163
same,glycan array binding signal (z-score),[57],-0.144
same,glycan array binding signal (z-score),[58],0.285
same,glycan array binding signal (z-score),[59],-0.395
same,glycan array binding signal (z-score),[60],-0.525
same,glycan array binding signal (z-score),[61],-0.494
same,glycan array binding signal (z-score),[62],-0.519
same,glycan array binding signal (z-score),[63],0.914
same,glycan array binding signal (z-score),[64],-0.51

# 2 entries from above, reformatted.
substance | measurement | setting | value
MpAFP RI GFP (Marinomonas primoryensis) | glycan array binding signal (z-score) | [28] | 0.507
same | glycan array binding signal (z-score) | [53] | -0.4

# — the supplement of paper PMC8728848
